Some of these results come from one statement about several compounds together.
Assays:
Type in all cases: in vivo
Puccinia recondita = experiment: Puccinia test (wheat) / protective; details: 1000 ppm active compound, evaluation 10 days after inoculation
[1] = test system: Erysiphe graminis fsp. hordei; experiment: Erysiphe test (barley) / protective; details: 1000 ppm active compound, evaluation 7 days after inoculation
Alternaria solani = experiment: Alternaria test (tomato) / protective; details: 100 ppm active compound, evaluation 3 days after inoculation
[2] = test system: bean rust pathogen Uromyces appendiculatus; experiment: Uromyces test (bean) / protective; details: 100 ppm active compound, evaluation 10 days after inoculation

Measured: efficacy

CCN(C)C=Nc1cc(C)c(/C(C)=N/OC(C2CC2)C2CC2)cc1C [Compound 20, N′-{4-[(1E)-N-(dicyclopropylmethoxy)ethanimidoyl]-2,5-dimethylphenyl}-N-ethyl-N-methylimidoformamide]
≥ 70%: all assays above

CCN(C)C=Nc1cc(C)c(/C(C)=N/OCCc2ccc(Cl)cc2)cc1C [Compound 25, N′-(4-{(1E)-N-[2-(4-chloro-phenyl)ethoxy]ethanimidoyl}-2,5-dimethylphenyl)-N-ethyl-N-methylimidoformamide]
≥ 70%: Puccinia recondita | [1] | [2]

CCN(C)C=Nc1cc(C)c(/C=N/OCc2ccccc2)cc1C [Compound 3, N′-(4-{(E)-[(benzyloxy)imino]methyl}-2,5-di-methylphenyl)-N-ethyl-N-methylimidoformamide]
≥ 70%: all assays above

— patent US8785692B2, “Substituted phenylamidines and the use thereof as fungicides” (priority 2007, dated 2014)
